From the supplement of paper PMC4604168 (melanoma cell lines)
The list shows a part of the results. Single values are uncertain, as repeats are few or missing.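 The apoptosis fraction was the count of cleaved-PARP antibody-stained nuclei relative to all DNA-stained nuclei, imaged in 1,536-well plates. Screening doses were set so most cells survived, and baseline and induced cleaved-PARP levels vary greatly across cell lines.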

These compounds were tested on MEL-HO (assay: cleaved PARP positive nuclei fraction relative to DMSO control; melanoma cells; higher = more apoptosis). Settings: library dose: low library concentration; 72 h.
`C[C@]12O[C@H](C[C@]1(O)CO)n1c3ccccc3c3c4c(c5c6ccccc6n2c5c31)CNC4=O` [Lestaurtinib] + C[C@@H](Oc1cc(-c2cnn(C3CCNCC3)c2)cnc1N)c1c(Cl)ccc(F)c1Cl [Crizotinib] (first compound 0.004 µM, partner dose 0.2 µM) was tested, and the “cleaved PARP positive nuclei fraction” value was 75.6%. For `N.N.[Cl][Pt][Cl]` [cisplatin] + Clc1ccc(Nc2nnc(Cc3ccncc3)c3ccccc23)cc1 [vatalanib] (first compound 1.6 µM, partner dose 2 µM), the “cleaved PARP positive nuclei fraction” value was 209%. For `O=c1[nH]nc(Sc2ncc([N+](=O)[O-])s2)n1-c1ccc2c(c1)OCCO2` + C[C@]12O[C@H](C[C@]1(O)CO)n1c3ccccc3c3c4c(c5c6ccccc6n2c5c31)CNC4=O [Lestaurtinib] (first compound 0.2 µM, partner dose 0.004 µM), the “cleaved PARP positive nuclei fraction” value was 84.9%. In the case of `COc1cc([C@@H]2c3cc4c(cc3[C@@H](O[C@@H]3O[C@@H]5CO[C@@H](C)O[C@H]5[C@H](O)[C@H]3O)[C@H]3COC(=O)[C@H]23)OCO4)cc(OC)c1O` [etoposide] + N.N.[Cl][Pt][Cl] [cisplatin] (first compound 0.02 µM, partner dose 1.6 µM), the “cleaved PARP positive nuclei fraction” value is reported as 43.9%. With `C[C@]12O[C@H](C[C@]1(O)CO)n1c3ccccc3c3c4c(c5c6ccccc6n2c5c31)CNC4=O` [Lestaurtinib] + C[As](C)SC[C@H](NC(=O)CC[C@H](N)C(=O)O)C(=O)NCC(=O)O [Darinaparsin] (first compound 0.004 µM, partner dose 0.4 µM) the “cleaved PARP positive nuclei fraction” value was 141%. `Cn1cc(C2=C(c3cn(C4CCN(Cc5ccccn5)CC4)c4ccccc34)C(=O)NC2=O)c2ccccc21` [Enzastaurin] + NC1(c2ccc(-c3nc4ccn5c(=O)[nH]nc5c4cc3-c3ccccc3)cc2)CCC1 [MK2206] (first compound 0.8 µM, partner dose 0.4 µM) was tested, and the “cleaved PARP positive nuclei fraction” value was 153%. For `Cn1cc(C2=C(c3cn(C4CCN(Cc5ccccn5)CC4)c4ccccc34)C(=O)NC2=O)c2ccccc21` [Enzastaurin] + N.N.[Cl][Pt][Cl] [cisplatin] (first compound 0.8 µM, partner dose 1.6 µM), the “cleaved PARP positive nuclei fraction” value was 82.7%. `C[C@]12O[C@H](C[C@]1(O)CO)n1c3ccccc3c3c4c(c5c6ccccc6n2c5c31)CNC4=O` [Lestaurtinib] + Cn1nnc2c(C(N)=O)ncn2c1=O [temozolomide] (first compound 0.004 µM, partner dose 2 µM) was tested, and the “cleaved PARP positive nuclei fraction” value was 81.4%. For `C[As](C)SC[C@H](NC(=O)CC[C@H](N)C(=O)O)C(=O)NCC(=O)O` [Darinaparsin] + COc1ccc(Cl)c(Nc2nc3ccccc3nc2NS(=O)(=O)c2cccc(NC(=O)C(C)(C)N)c2)c1 [XL147] (first compound 0.4 µM, partner dose 0.8 µM), the “cleaved PARP positive nuclei fraction” value was 80.3%. With `COc1cc([C@@H]2c3cc4c(cc3[C@@H](O[C@@H]3O[C@@H]5CO[C@@H](C)O[C@H]5[C@H](O)[C@H]3O)[C@H]3COC(=O)[C@H]23)OCO4)cc(OC)c1O` [etoposide] + C[As](C)SC[C@H](NC(=O)CC[C@H](N)C(=O)O)C(=O)NCC(=O)O [Darinaparsin] (first compound 0.02 µM, partner dose 0.4 µM) the “cleaved PARP positive nuclei fraction” value was 88.4%. `C[C@]12O[C@H](C[C@]1(O)CO)n1c3ccccc3c3c4c(c5c6ccccc6n2c5c31)CNC4=O` [Lestaurtinib] + Cc1nc(Nc2ncc(C(=O)Nc3c(C)cccc3Cl)s2)cc(N2CCN(CCO)CC2)n1 [dasatanib] (first compound 0.004 µM, partner dose 0.004 µM) was tested, and the “cleaved PARP positive nuclei fraction” value was 41.8%. For `Cn1cc(C2=C(c3cn(C4CCN(Cc5ccccn5)CC4)c4ccccc34)C(=O)NC2=O)c2ccccc21` [Enzastaurin] + CC(=O)O[C@@]12CO[C@@H]1C[C@H](O)[C@@]1(C)C(=O)[C@H](O)C3=C(C)[C@@H](OC(=O)[C@H](O)[C@@H](NC(=O)OC(C)(C)C)c4ccccc4)C[C@@](O)([C@@H](OC(=O)c4ccccc4)[C@H]21)C3(C)C [Docetaxel] (first compound 0.8 µM, partner dose 0.0001 µM), the “cleaved PARP positive nuclei fraction” value was 172%. For `O=C(/C=C/c1cccnc1)NCCCCC1CCN(C(=O)c2ccccc2)CC1` + C[As](C)SC[C@H](NC(=O)CC[C@H](N)C(=O)O)C(=O)NCC(=O)O [Darinaparsin] (first compound 0.01 µM, partner dose 0.4 µM), the “cleaved PARP positive nuclei fraction” value was 932%. With `Cn1cc(C2=C(c3cn(C4CCN(Cc5ccccn5)CC4)c4ccccc34)C(=O)NC2=O)c2ccccc21` [Enzastaurin] + C[C@@H](Oc1cc(-c2cnn(C3CCNCC3)c2)cnc1N)c1c(Cl)ccc(F)c1Cl [Crizotinib] (first compound 0.8 µM, partner dose 0.2 µM) the “cleaved PARP positive nuclei fraction” value was 125%.
